Reference: PubChem BioAssay AID1224830 (NIAID, 2016)
Here is an unselected part of about 18,000 reagents. About 2,900 of all reagents (16%) were called active. 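Calls are made per well; low scores hint the gene aids the LPS response, high scores that it dampens it.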 Repeated entries: four replicate wells of each siRNA pool.

Assay: 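Host factors that control LPS-induced TNF expression in human macrophages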 (primary screen)
Cell system: human THP-1 monocytic leukaemia cells, TNF dual-luciferase reporter clone, PMA-differentiated to macrophage-like cells
Reagents: siRNA pool against human genes, 50 nM
Time to read-out: LPS for 4 h, given about 3 days after siRNA transfection
Conditions: bacterial LPS (TLR4 ligand), 10 ng/ml
Measured: 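TNF firefly reporter luminescence divided by renilla, normalised to the plate median, then turned into a robust z-score for each replicate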
Reading the numbers: TNF reporter robust z-score: higher = stronger TNF reporter response to LPS
Call rule: 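a well is active when its z-score exceeds 2.8 or falls below -1.5; control wells carry no call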

Gene	PubChem SID	TNF reporter robust z-score	outcome
SERPINA7	SID315451767	0.09	inactive
SERPINA7	SID315451767	0.64	inactive
SERPINA7	SID315451767	-0.8	inactive
SERPINA7	SID315451767	-0.27	inactive
EMC9	SID315456405	1.26	inactive
EMC9	SID315456405	1.42	inactive
EMC9	SID315456405	0.84	inactive
EMC9	SID315456405	-0.29	inactive
SORD	SID315451576	0.19	inactive
SORD	SID315451576	-0.13	inactive
SORD	SID315451576	0.41	inactive
SORD	SID315451576	0.02	inactive
SPSB3	SID315460867	3.49	active
SPSB3	SID315460867	1.74	inactive
SPSB3	SID315460867	3.34	active
SPSB3	SID315460867	4.93	active
SERPIND1	SID315449163	-1.01	inactive
SERPIND1	SID315449163	-0.34	inactive
SERPIND1	SID315449163	-1.22	inactive
SERPIND1	SID315449163	0.41	inactive
TAS2R41	SID315463580	-1.01	inactive
TAS2R41	SID315463580	-0.28	inactive
TAS2R41	SID315463580	0.84	inactive
TAS2R41	SID315463580	0.53	inactive
P2RY1	SID315450395	1.51	inactive
P2RY1	SID315450395	1.67	inactive
P2RY1	SID315450395	1.01	inactive
P2RY1	SID315450395	0.64	inactive
CTSL	SID315448181	0.06	inactive
CTSL	SID315448181	1.89	inactive
CTSL	SID315448181	-1.16	inactive
CTSL	SID315448181	1.1	inactive
CHIT1	SID315447911	-0.93	inactive
CHIT1	SID315447911	2.16	inactive
CHIT1	SID315447911	1.81	inactive
CHIT1	SID315447911	1.11	inactive
SYNE4	SID315462780	-1.52	active
SYNE4	SID315462780	-0.64	inactive
SYNE4	SID315462780	0.28	inactive
SYNE4	SID315462780	-0.9	inactive
VPS41	SID315455902	-0.52	inactive
VPS41	SID315455902	-0.24	inactive
VPS41	SID315455902	-0.63	inactive
VPS41	SID315455902	0.58	inactive
B2M	SID315447502	-0.48	inactive
B2M	SID315447502	-0.31	inactive
B2M	SID315447502	-1.05	inactive
B2M	SID315447502	-0.7	inactive
PSMD1	SID315450907	-1.42	inactive
PSMD1	SID315450907	-1.4	inactive
PSMD1	SID315450907	-1.39	inactive
PSMD1	SID315450907	-1.38	inactive
PSMD3	SID315450909	-1.27	inactive
PSMD3	SID315450909	-1.47	inactive
PSMD3	SID315450909	-1.53	active
PSMD3	SID315450909	-1.32	inactive
CNTNAP4	SID315460695	0.24	inactive
CNTNAP4	SID315460695	1.47	inactive
CNTNAP4	SID315460695	0.63	inactive
CNTNAP4	SID315460695	1.66	inactive
TUT1	SID315459024	-0.58	inactive
TUT1	SID315459024	0.55	inactive
TUT1	SID315459024	0.15	inactive
TUT1	SID315459024	1	inactive
GSDMB	SID315457925	0.3	inactive
GSDMB	SID315457925	0.81	inactive
GSDMB	SID315457925	1.32	inactive
GSDMB	SID315457925	1.18	inactive
BCAP29	SID315457970	-0.88	inactive
BCAP29	SID315457970	0.1	inactive
BCAP29	SID315457970	-1.45	inactive
BCAP29	SID315457970	-1.46	inactive
ZFR2	SID315455081	0.28	inactive
ZFR2	SID315455081	0.69	inactive
ZFR2	SID315455081	0.9	inactive

5 neighbouring entries from above, quoted:
Gene	PubChem SID	TNF reporter robust z-score	outcome
PSMD1	SID315450907	-1.4	inactive
PSMD1	SID315450907	-1.39	inactive
PSMD1	SID315450907	-1.38	inactive
PSMD3	SID315450909	-1.27	inactive
PSMD3	SID315450909	-1.47	inactive
